Measured values as given in paper PMC7819943, “Rice protein-binding microarrays: a tool to detect cis-acting elements near promoter regions in rice”.
The list shows a part of the results.

Amino acid sequences for entries named in this document (tags omitted).
UniProt Q0JBA9, entry or part of it: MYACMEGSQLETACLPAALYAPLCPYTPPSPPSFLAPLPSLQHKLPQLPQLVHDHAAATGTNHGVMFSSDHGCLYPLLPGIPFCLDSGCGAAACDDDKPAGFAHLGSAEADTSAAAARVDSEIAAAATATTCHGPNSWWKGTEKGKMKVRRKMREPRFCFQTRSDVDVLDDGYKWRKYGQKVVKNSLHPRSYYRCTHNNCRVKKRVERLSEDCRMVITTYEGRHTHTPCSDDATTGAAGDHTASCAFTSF

molecular target: OsWRKY34 (Oryza sativa, UniProt Q0JBA9 1-250); assay: protein-binding microarray (RPBM); PBS, 2% BSA, 51.3 ng/ul salmon testes DNA, 50 uM zinc acetate, 200 nM TF, 25 C, 1 h; high values mean tight binding; conditions: protein: recombinant; tags: N-terminal polyhistidine and DsRed monomer fusion (pET32a); label: CyDye5-dUTP incorporated in the synthesized complementary strand; 3' TTTTT single-stranded linker to array surface; dsDNA, one strand shown
Summary of the method: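 Transcription factors, each fused N-terminally to a polyhistidine tag and DsRed, were expressed in E. coli BL21-CodonPlus and purified on Ni–NTA. A custom Agilent array was made double-stranded by primer extension with Cy5-dUTP and blocked with 2% BSA. It was incubated with 200 nM protein in PBS, 2% BSA, salmon testes DNA and 50 µM zinc acetate at 25 °C for 1 h, then washed. The binding signal is per-feature fluorescence intensity (arbitrary units) read on an Axon 4000B scanner.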

Sequence | binding signal
CCACCATCCTTATCCTTATCTCCTCCACTCATTTCCTTCTCGGAGTCACCTAGTGCAG | 15500 fluorescence intensity (a.u.)
AGGTATATGTGTGTATGACAGGTGAGACCAAGTATGAATTCGGAGTCACCTAGTGCAG | 8970 fluorescence intensity (a.u.)
CACCTGCGCCGACCTCCTCGCCGCCGTCTCCACCCTCTCCCGGAGTCACCTAGTGCAG | 8180 fluorescence intensity (a.u.)
CTTCTAATCCCATCTTTAGTGCATCTACTATCTCACCTTACGGAGTCACCTAGTGCAG | 8930 fluorescence intensity (a.u.)
TACCTTTTAAATTTATTCTGTGAGAGCACTTCAGTCCATTCGGAGTCACCTAGTGCAG | 8310 fluorescence intensity (a.u.)
GCTCGTCCACCGTCGCCTCCATCTCCCCTCGCCGCCGGCGCGGAGTCACCTAGTGCAG | 8540 fluorescence intensity (a.u.)
CGTCCAACTCCAACTCATCCTGGCCGTCCATTCCCGATCACGGAGTCACCTAGTGCAG | 14600 fluorescence intensity (a.u.)
TTCCTATCTTGCAGGCTTTTCACTTTGAGCTCACGTAGAGCGGAGTCACCTAGTGCAG | 9020 fluorescence intensity (a.u.)
CCTTTGTTTTTTCCCCTTTTCCTTGCCACTGCCTGTTAAACGGAGTCACCTAGTGCAG | 8950 fluorescence intensity (a.u.)
CGACGTGGTGTTCGACGAAGGGCGAGGGTGGGTATGGGACCGGAGTCACCTAGTGCAG | 8110 fluorescence intensity (a.u.)
ACCAGTCACCGGCCCAGCCACACAACACAATACAGTCTGCCGGAGTCACCTAGTGCAG | 9570 fluorescence intensity (a.u.)
CATCTGGCGCGTGCGCGCCCATTAGCATTTTCGGACTCTCCGGAGTCACCTAGTGCAG | 8850 fluorescence intensity (a.u.)
GAGGAGGCTGCAGTCCTAACACGTGGCGCAATTTTTTCCCCGGAGTCACCTAGTGCAG | 9960 fluorescence intensity (a.u.)
ACGCGCCTGTCTCCTACACGGGGCCCCGGCCCCATCTGATCGGAGTCACCTAGTGCAG | 11100 fluorescence intensity (a.u.)
AACATTGAATTGGATCGTTGACTTGGACGAGTCATCGCCGCGGAGTCACCTAGTGCAG | 13300 fluorescence intensity (a.u.)
GATTTAGATTCGCCTTTTTGCCCGTTCATTGTTTCAGTTACGGAGTCACCTAGTGCAG | 12600 fluorescence intensity (a.u.)
GGCCGCCCTATCCCACTTTCGCCCAGCAACCAAACAACCTCGGAGTCACCTAGTGCAG | 8300 fluorescence intensity (a.u.)
TGATCCGACTGCATCCGCCCGTTTTCACCCCTACTTGCAACGGAGTCACCTAGTGCAG | 8700 fluorescence intensity (a.u.)
TTTTTAGTACATGTTTGACCGTTCGTCTTATTCAAAAAATCGGAGTCACCTAGTGCAG | 10700 fluorescence intensity (a.u.)
GATCGCGGCGAACGTTATCGTCGTCTGGCTCGTCTCGTCTCGGAGTCACCTAGTGCAG | 8940 fluorescence intensity (a.u.)
ATATCTCACTTTGACTGCTTGTTGTTATCGTTCTTTTATACGGAGTCACCTAGTGCAG | 12000 fluorescence intensity (a.u.)
GACGGAGGTCCAACCCTATGCCCGCTGGTGTCCACTGTCCCGGAGTCACCTAGTGCAG | 8780 fluorescence intensity (a.u.)
TCGTTTTCCGCACGTACGAACTATTAAATGGTGTGTTTTTCGGAGTCACCTAGTGCAG | 10100 fluorescence intensity (a.u.)
TCCATCCATCTCGCTGTCCTGCACGTTTAGACGTTTACTTCGGAGTCACCTAGTGCAG | 12200 fluorescence intensity (a.u.)
AGTTTTTTTTTCAGCTTTTTGGTTTCTTTTGCTGTTGTTTCGGAGTCACCTAGTGCAG | 10300 fluorescence intensity (a.u.)
TGCCTGGCACCGTCCCCATCGCCGGCCGCCTCCGCCTCCGCGGAGTCACCTAGTGCAG | 11300 fluorescence intensity (a.u.)
ATATGCTCATAGGGGTAGGGTTTGCGTGCGTGTGTTTATACGGAGTCACCTAGTGCAG | 9250 fluorescence intensity (a.u.)

Sequence | binding signal
ACCCGCACCTCCCTGGGCCCCACCTGTCATCCACCATTCCCGGAGTCACCTAGTGCAG | 9760 fluorescence intensity (a.u.)
TGTATGCAACTATGCATGTAGTGTTTGATTTGCCTCTCTTCGGAGTCACCTAGTGCAG | 9610 fluorescence intensity (a.u.)
AAGGGTTATCGACCTACGCCTGCTGGCCCTTTTCGGCTTTCGGAGTCACCTAGTGCAG | 9300 fluorescence intensity (a.u.)
TGGTTGGGTGGATGGATGGATCGCGTCGGTTGCGCGCAAACGGAGTCACCTAGTGCAG | 12900 fluorescence intensity (a.u.)
TTCCTTCCGCCGCATGCCCCGCTCCGCCGGTCATCCGCTTCGGAGTCACCTAGTGCAG | 8510 fluorescence intensity (a.u.)
GGGCTTAAATACGGACAATATTCGTCTATACGGGCTTTTGCGGAGTCACCTAGTGCAG | 8780 fluorescence intensity (a.u.)
GGCCAGAATAACACTGGTGGTTTTAAGGGTAGGGGTTACACGGAGTCACCTAGTGCAG | 9300 fluorescence intensity (a.u.)
GGCTGGTACTGGGCTACTAGTCATCTTCTGCCTCTTCCTCCGGAGTCACCTAGTGCAG | 8300 fluorescence intensity (a.u.)
CTAGATTCTACAGTGTGCAGGGCGGGTGAAGACGTAACCACGGAGTCACCTAGTGCAG | 8160 fluorescence intensity (a.u.)
GATTTTTCTTTTCCCGTTTCTTGAATTCATGGTCTCAGATCGGAGTCACCTAGTGCAG | 8980 fluorescence intensity (a.u.)
ACCCACCATCGAAATGGTCCAGGTCCATTTCGTCCATCCCCGGAGTCACCTAGTGCAG | 9230 fluorescence intensity (a.u.)
ACGCTCTCGGTCTCGGTCTCTCGCTTTTTACCACACTACTCGGAGTCACCTAGTGCAG | 8420 fluorescence intensity (a.u.)
AACAACAGAGTAGGGGTGGGCATAAAAACCGTGAACCGAACGGAGTCACCTAGTGCAG | 8970 fluorescence intensity (a.u.)
ACCACCTGACCTCCCCTGCTACTAGCACCCCGACTTTTTTCGGAGTCACCTAGTGCAG | 9110 fluorescence intensity (a.u.)
ACACTGACCCTGACCCGAAGTCAATCTTTCAATGTTTCTTCGGAGTCACCTAGTGCAG | 8160 fluorescence intensity (a.u.)
TGCAGCCCAACTCGTCGTCCACCTCACACTCGCCGCAGCCCGGAGTCACCTAGTGCAG | 10600 fluorescence intensity (a.u.)
GTGGGCCAATGTTAGCTGGTGGTTGGGAGTTGGGGAGGAGCGGAGTCACCTAGTGCAG | 13000 fluorescence intensity (a.u.)
AGGGGTCCTTAATGTTCGTGGGATCAAAGGGTCAAAGTGACGGAGTCACCTAGTGCAG | 11100 fluorescence intensity (a.u.)
TCACACAGGCATCGATTTACAATATTTACTGGAATGTTTACGGAGTCACCTAGTGCAG | 8630 fluorescence intensity (a.u.)
AAGTGTACATTCTATATCATATGTTTTTTTTATTTCTCTACGGAGTCACCTAGTGCAG | 9890 fluorescence intensity (a.u.)
GTCCGCCCCTGCTTCCAGATTATTACTATGGCTTTGACAACGGAGTCACCTAGTGCAG | 8360 fluorescence intensity (a.u.)
AGTACCTAACTGATCAACAGCCAGCCATATACTGCTACCACGGAGTCACCTAGTGCAG | 9130 fluorescence intensity (a.u.)
CGTATCTGCTCTGTTTTTCATCTCCTGTCATTTGTCTAAACGGAGTCACCTAGTGCAG | 18500 fluorescence intensity (a.u.)
TCACCTTCAGATTTTGTTCTCGTCGATTAATTTCCCTGGTCGGAGTCACCTAGTGCAG | 11300 fluorescence intensity (a.u.)
CAATATGGAGTATATAGGTAGTTAGTGGTAGTAAGTAGTTCGGAGTCACCTAGTGCAG | 8780 fluorescence intensity (a.u.)
TCACACACACGAGGAAATTATTCATTACGCGTATATATACCGGAGTCACCTAGTGCAG | 8800 fluorescence intensity (a.u.)
ATCGGTTATGTCAGGGTTATGGGTGCTTCCAAAAGAAAAACGGAGTCACCTAGTGCAG | 9720 fluorescence intensity (a.u.)

A portion from further up:
Sequence | binding signal
GATTTTTCTTTTCCCGTTTCTTGAATTCATGGTCTCAGATCGGAGTCACCTAGTGCAG | 8980 fluorescence intensity (a.u.)
ACCCACCATCGAAATGGTCCAGGTCCATTTCGTCCATCCCCGGAGTCACCTAGTGCAG | 9230 fluorescence intensity (a.u.)
ACGCTCTCGGTCTCGGTCTCTCGCTTTTTACCACACTACTCGGAGTCACCTAGTGCAG | 8420 fluorescence intensity (a.u.)
